The text below walks through data of patent US12215078B2, “Compositions and methods for protein labeling, modification, analysis, and targeted delivery” (University of Massachusetts, priority 2018, dated 2025).

Entries after “also recorded” stand apart in the source; their conditions may differ.

The series is described as follows: Thiol-triggered declick of thiol/amine click products followed by NMR. It is filed as physicochemical. The settings on record: in the presence of thiol. How it is done: Typically, product of thiol-A1 or amine-A1 click product was dissolved in single or mixed deuterated solvents (the volume of solvent depends on the solubility of A1 The volume of solvent depends on the solubility of click product). Then, thiol was added to the solution. The reaction was immediately followed by NMR.
Compound 17: 10 μmol (1 eq.) of 17 was dissolved in 500 μL of MeOH-d4 and 500 μL of 50 mM pH6.8 phosphate buffer. Then, 80 μmol (8 eq.) of thiol was added to the solution. Final concentration of 17 is 10 mM.
Compound 18: 10 μmol (1 eq.) of 18 was dissolved in 500 μL of MeOH-d4 and 500 μL of 50 mM pH7.4 phosphate buffer. Then, 80 μmol (8 eq.) of thiol was added to the solution. Final concentration of 18 is 10 mM.
Compound 19: 10 μmol (1 eq.) of 19 was dissolved in 500 μL of MeOH-d4 and 500 μL of 50 mM pH7.4 phosphate buffer. Then, 10 μmol (0.5 eq.) of thiol was added to the solution. Final concentration of 19 is 10 mM.
Compound 20: 10 μmol (1 eq.) of 20 was dissolved in 1000 μL of MeOH-d4 and 500 μL of 50 mM pH7.4 phosphate buffer. Then, 10 μmol (0.5 eq.) of thiol was added to the solution. Final concentration of 20 is 6.67 mM.
Compound 21: 10 μmol (1 eq.) of 21 was dissolved in 500 μL of MeOH-d4 and 500 μL of 50 mM pH7.4 phosphate buffer. Then, 10 μmol (0.5 eq.) of thiol was added to the solution. Final concentration of 21 is 10 mM.
Compound 22: 10 μmol (1 eq.) of 22 was dissolved in 500 μL of MeOH-d4 and 500 μL of 50 mM pH7.4 phosphate buffer. Then, 10 μmol (0.5 eq.) of thiol was added to the solution. Final concentration of 22 is 10 mM.
Compound 23: 10 μmol (1 eq.) of 23 was dissolved in 1000 μL of MeOH-d4 and 500 μL of 50 mM pH7.4 phosphate buffer. Then, 10 μmol (1 eq.) of thiol was added to the solution. Final concentration of 23 is 6.67 mM.
Compound 24: 10 μmol (1 eq.) of 24 was dissolved in 2000 μL of MeOH-d4 Then, 5 μmol (0.5 eq.) of thiol or amine was added to the solution. Final concentration of 24 is 5 mM.
Compound 25: 10 μmol (1 eq.) of 25 was dissolved in 1000 μL of MeOH-d4 and 500 μL of 50 mM pH7.4 phosphate buffer. Then, 5 μmol (0.5 eq.) of thiol was added to the solution. Final concentration of 25 is 6.67 mM.
In the case of `C=C(CSCC)C(=O)OC` [Compound 18], the “thiol-triggered declick (reversibility) of click product” value (shortened to “thiol-triggered declick (reversibility)”) is “can all be reversed; also recorded: triggerable”. With `C=C(CSCCOCCOC)C(=O)NC` [Compound 19] the entry was “can all be reversed; also recorded: triggerable”; with `CCSCC(=Cc1ccc(Br)cc1)C(=O)OC` [Compound 21], “irreversible”. In the case of `C=C(CSCCOCCOC)C(=O)OC` [Compound 17], the “thiol-triggered declick (reversibility)” value was “can all be reversed”. With `C=C(C(=O)OC)C(SCC)c1ccc(Br)cc1` (stereo not drawn) [Compound 20], the “thiol-triggered declick (reversibility)” value is listed as “can all be reversed; also recorded: triggerable”. As to `C=C(C(=O)OC)C(NCc1ccccc1)c1ccc(OC)cc1` (stereo not drawn) [Compound 25], the “thiol-triggered declick (reversibility)” value was “can all be reversed; also recorded: triggerable”.

`CCSCC(=Cc1ccc(OC)cc1)C(=O)OC` [Compound 22]: the “thiol-triggered declick (reversibility)” value is listed as “irreversible”.

Regarding `COC(=O)C(=Cc1ccc(OC)cc1)CN(CC(=Cc1ccc(OC)cc1)C(=O)OC)Cc1ccccc1` [Compound 24], the “thiol-triggered declick (reversibility)” value is on record as “irreversible”. With `C=C(CN(CC(=C)C(=O)OC)Cc1ccccc1)C(=O)OC` [Compound 23] the entry was “can all be reversed”.
